Results published in US20200157217A1 (SYSTIMMUNE, published 2020).
Results are given in words; binding and its absence hold for the method and conditions named. Some binding calls cover weakened binding; strength is not graded here.

Chains of the proteins cited; added tags and fusions are not shown. Lines headed by an entry give the natural chain unless they say otherwise; changes in a name come on top.
UniProt P07766: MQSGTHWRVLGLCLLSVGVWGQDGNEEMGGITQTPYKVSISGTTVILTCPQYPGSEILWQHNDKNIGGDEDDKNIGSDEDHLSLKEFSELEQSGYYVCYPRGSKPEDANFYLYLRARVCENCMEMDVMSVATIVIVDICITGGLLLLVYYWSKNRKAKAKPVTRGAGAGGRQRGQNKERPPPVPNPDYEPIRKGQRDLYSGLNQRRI
UniProt P09693: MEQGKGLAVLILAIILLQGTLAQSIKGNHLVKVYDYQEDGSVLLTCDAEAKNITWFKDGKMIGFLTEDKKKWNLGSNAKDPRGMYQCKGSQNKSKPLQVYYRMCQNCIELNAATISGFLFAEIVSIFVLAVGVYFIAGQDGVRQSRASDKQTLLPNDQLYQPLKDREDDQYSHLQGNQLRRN
UniProt P04234: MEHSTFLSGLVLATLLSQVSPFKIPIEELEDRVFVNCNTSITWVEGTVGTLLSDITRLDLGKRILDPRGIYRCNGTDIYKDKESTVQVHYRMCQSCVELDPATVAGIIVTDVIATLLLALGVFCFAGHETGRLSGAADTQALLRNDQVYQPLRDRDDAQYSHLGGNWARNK

How the values were obtained:
[1] = target: T1, human CD3 (Delta, Gamma, Epsilon) on the human T cell line Jurkat or on purified human CD3+ T cells (human) (UniProt P07766+P09693+P04234); experiment: FACS on the human CD3+ T cell line Jurkat
[2] = target: T1, human CD3 (Delta, Gamma, Epsilon) on the human T cell line Jurkat or on purified human CD3+ T cells (human); experiment: FACS, antibody titration on Jurkat cells

- binding [1]: binds
- binding [2]: binds
B1: 299F6 chimeric rabbit/human IgG antibody (antibody, V domains shown)
VH: QSLEESGGRLVTPGTPLTLTCTVSGFTISSNAMSWVRQAPGKGLEWIGVITGRDITYYANWAKGRFTISKTSSTTVDLKMTSLTAEDSATYFCARDGGSSAITSNNIWGPGTLVTVSS
VL: DVVMTQTPSSVSAAVGGTVTINCQASESISSWLAWYQQKPGQPPKLLIYEASKLASGVPSRFSGSGSGTEFTLTISDLECADAATYYCQGYFYFISRSYVNAFGGGTEVVFKR
